This passage reports binding results from article PMC6240287.

Sequences of proteins named here, by UniProt entry; tags and fusion partners are left off.
UniProt P35222: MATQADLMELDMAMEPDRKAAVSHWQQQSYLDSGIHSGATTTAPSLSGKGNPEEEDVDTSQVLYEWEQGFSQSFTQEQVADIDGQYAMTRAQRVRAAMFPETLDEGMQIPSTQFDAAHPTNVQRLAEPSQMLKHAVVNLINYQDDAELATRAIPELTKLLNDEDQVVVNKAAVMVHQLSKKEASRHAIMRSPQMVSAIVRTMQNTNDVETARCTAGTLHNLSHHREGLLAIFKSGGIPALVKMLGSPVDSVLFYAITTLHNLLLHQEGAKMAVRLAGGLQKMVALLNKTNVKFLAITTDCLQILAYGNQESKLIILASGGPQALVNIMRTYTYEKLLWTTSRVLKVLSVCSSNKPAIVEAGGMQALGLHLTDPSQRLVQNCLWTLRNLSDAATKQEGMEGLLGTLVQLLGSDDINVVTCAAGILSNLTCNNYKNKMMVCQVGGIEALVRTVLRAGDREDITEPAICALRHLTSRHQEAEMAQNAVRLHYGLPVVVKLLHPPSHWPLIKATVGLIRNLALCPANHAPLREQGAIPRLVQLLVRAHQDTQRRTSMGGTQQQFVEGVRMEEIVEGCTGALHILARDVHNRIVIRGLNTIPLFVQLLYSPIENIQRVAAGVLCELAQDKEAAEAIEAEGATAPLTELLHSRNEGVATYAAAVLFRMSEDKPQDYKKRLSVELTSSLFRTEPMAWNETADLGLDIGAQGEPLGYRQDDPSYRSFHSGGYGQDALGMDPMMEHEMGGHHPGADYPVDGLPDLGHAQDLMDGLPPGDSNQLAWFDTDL

The experiment addresses β-catenin (UniProt P35222). The experiment in a line: co-IP; RKO cells pre-treated with the GSK3 inhibitor CHIR99021 (6 μM, 24 h); which protein was precipitated is not told.

No constants are given. Whether binding was seen depends on the method and setting. In cells and extracts the contact can be indirect. Some results given as binding are weak or reduced against the parent protein; the word gives no strength.

B1: Tob1 (protein, UniProt P50616 1-345)
chain: MQLEIQVALNFIISYLYNKLPRRRVNIFGEELERLLKKKYEGHWYPEKPYKGSGFRCIHIGEKVDPVIEQASKESGLDIDDVRGNLPQDLSVWIDPFEVSYQIGEKGPVKVLYVDDNNENGCELDKEIKNSFNPEAQVFMPISDPASSVSSSPSPPFGHSAAVSPTFMPRSTQPLTFTTATFAATKFGSTKMKNSGRSNKVARTSPINLGLNVNDLLKQKAISSSMHSLYGLGLGSQQQPQQQQQPAQPPPPPPPPQQQQQQKTSALSPNAKEFIFPNMQGQGSSTNGMFPGDSPLNLSPLQYSNAFDVFAAYGGLNEKSFVDGLNFSLNNMQYSNQQFQPVMAN
Take B1: the binding result is on record as “binds”.
